Results: paper PMC4363627
Results are given in words; binding and its absence hold for the method and conditions named. Binding seen in cells or lysates may run through a third protein. Some entries that bind do so weakly or less than the wild type. For some assays here: Where a sequence is shown, tags or fusion partners need not be part of it.

Sequences of proteins named here, by UniProt entry; tags and fusion partners are left off.
UniProt Q9UKB1: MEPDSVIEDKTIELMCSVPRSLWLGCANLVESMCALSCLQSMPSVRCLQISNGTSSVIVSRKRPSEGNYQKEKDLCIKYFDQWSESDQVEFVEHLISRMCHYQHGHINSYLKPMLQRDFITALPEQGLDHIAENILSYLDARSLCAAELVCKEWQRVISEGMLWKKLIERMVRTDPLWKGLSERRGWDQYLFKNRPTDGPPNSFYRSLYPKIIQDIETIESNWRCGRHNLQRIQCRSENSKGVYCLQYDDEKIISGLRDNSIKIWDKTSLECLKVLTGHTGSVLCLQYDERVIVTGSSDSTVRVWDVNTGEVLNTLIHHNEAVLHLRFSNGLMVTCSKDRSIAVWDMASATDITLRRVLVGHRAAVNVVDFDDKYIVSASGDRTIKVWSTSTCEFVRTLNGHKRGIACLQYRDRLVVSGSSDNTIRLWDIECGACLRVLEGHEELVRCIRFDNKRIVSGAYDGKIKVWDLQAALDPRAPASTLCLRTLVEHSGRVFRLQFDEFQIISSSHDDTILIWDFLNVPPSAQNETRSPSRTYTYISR

Columns and labels:
[1] = molecular target: T1, 3X-Flag-tagged Sendai virus matrix protein (transfected HEK 293T) (Sendai virus) (UniProt P06446); assay: co-IP
T1 sequence: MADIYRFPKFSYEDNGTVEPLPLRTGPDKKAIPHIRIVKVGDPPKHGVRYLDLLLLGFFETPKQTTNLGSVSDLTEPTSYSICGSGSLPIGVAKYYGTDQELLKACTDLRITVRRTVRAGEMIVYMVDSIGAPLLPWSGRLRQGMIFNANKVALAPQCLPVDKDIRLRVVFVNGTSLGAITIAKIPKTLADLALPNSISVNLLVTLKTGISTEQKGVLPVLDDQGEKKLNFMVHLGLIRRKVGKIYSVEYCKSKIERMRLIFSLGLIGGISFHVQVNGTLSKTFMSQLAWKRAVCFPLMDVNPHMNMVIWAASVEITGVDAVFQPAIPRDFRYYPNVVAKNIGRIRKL

[2] = molecular target: 3X-Flag-tagged Hendra virus matrix protein (transfected HEK 293T) (Hendra virus) (UniProt O89341); assay: co-IP

Substance: Cul1 adaptor FBXW11 (from UniProt Q9UKB1 1-542)
- binding [1]: no binding
- binding [2]: binds
